Laboratory results from patent publication US20210171640A1.
Positions count from the first letter of the chain named. Results are given in words; binding and its absence hold for the method and conditions named. Some binding calls cover weakened binding; strength is not graded here.

Experiments:
[1] = biological target: cynomolgus VISTA extracellular domain (cynomolgus); test: ELISA
[2] = biological target: T1, human VISTA expressed on cells (human) (UniProt Q9H7M9); test: FACS
T1 sequence: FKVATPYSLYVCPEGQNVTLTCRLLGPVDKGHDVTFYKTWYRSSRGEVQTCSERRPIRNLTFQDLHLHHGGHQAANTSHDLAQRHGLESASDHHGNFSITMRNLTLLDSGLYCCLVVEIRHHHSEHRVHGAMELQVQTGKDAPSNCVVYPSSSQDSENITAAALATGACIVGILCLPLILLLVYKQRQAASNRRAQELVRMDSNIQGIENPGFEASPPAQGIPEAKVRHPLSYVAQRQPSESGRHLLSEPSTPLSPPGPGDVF

[3] = biological target: cynomolgus VISTA expressed on K562 cells (cynomolgus); test: FACS
[4] = biological target: T1, human VISTA expressed on cells (human); test: flow cytometry on K562-G8 cells expressing human VISTA, antibody at 5 µg/ml, goat anti-human IgG1-PE

Measured: binding

B1: VSTB50 (antibody, human IgG1, kappa, V domains shown)
VH: QVQLVQSGSELKKPGASVKVSCKASGYTFTNYGLNWVRQAPGQGLEWMGWINPYTGEPTYADDFKGRFVFSLDTSVSTAYLQICSLKAEDTAVYYCAREGYGNYIFPYWGQGTLVTVSS
VL: DIVMTQTPLSLSVTPGQPASISCRASESVDTYANSLMHWYLQKPGQPPQLLIYRASNLESGVPDRFSGSGSGTDFTLKISRVEAEDVGVYYCQQTNEDPRTFGQGTKLEIKR
binds: all assays above

B2: VSTB53 (antibody, human IgG1, kappa, V domains shown)
VH: QVQLVQSGAEVKKPGASVKVSCKASGYTFTHYTIHWVRQAPGQGLEWMGYIIPSSGYSEYNQKFKDRVTMTRDTSTSTVYMELSSLRSEDTAVYYCARGAYDDYYDYYAMDYWGQGTLVTVSS
VL: DIVMTQSPLSLPVTPGEPASISCRSSQTIVHSNGNTYLEWYLQKPGQSPQLLIYKVSNRFSGVPDRFSGSGSGTDFTLKISRVEAEDVGVYYCFQASHVPWTFGQGTKLEIKR
binds: all assays above

B3: VSTB95 (antibody, human IgG1, kappa, V domains shown)
VH: EVQLVESGGGLVQPGGSLRLSCAASGFTFRNYGMSWVRQAPGKGLEWVASIISGGSYTYYPDSVKGRFTISRDNAKNSLYLQMNSLRAEDTAVYYCARIYDHDGDYYAMDYWGQGTTVTVSS
VL: B2 VL with T28S, A96G
binds: all assays above

B4: VSTB60 (antibody, human IgG1, kappa, V domains shown)
VH: B1 VH with L34M, N35T, P53T, P58S, E99D, G100Y, N103I, I105V, F106S, P107A
VL: B1 VL with T31N, L36F, P47S, T95S, N96H, R100Y
binds: all assays above
